Experimental data as given in patent publication US20120184613A1, “SULFUR-CONTAINING COMPOUND AND USE THEREOF” (SUMITOMO CHEMICAL COMPANY, LIMITED, priority 2008, published 2012).
Some entries share one result that the patent states for a list of compounds.

test system: Nilaparvata lugens; experiment: Test Example 1: rice seedlings absorb test solution from the cup bottom, count of parasitic Nilaparvata lugens; assay type: in vivo; conditions: test solution 55.6 ppm active ingredient, 45 ml absorbed from cup bottom; 30 first-instar larvae released; counted after 6 days at 25° C.

Row | SMILES | number of the parasitic pests
1 | COC(C)(C)CS(=O)(=O)C(C#N)CCC(F)(F)C(F)(F)F (stereo not drawn) [(4)] | ≤ 3
2 | N#CC(CCC(F)(F)C(F)(F)F)S(=O)(=O)CCO (stereo not drawn) [(5)] | ≤ 3
3 | CC(C#N)(CCC(F)(F)C(F)(F)F)S(=O)(=O)CCO (stereo not drawn) [(6)] | ≤ 3
